From the supplement of paper PMC12819154, “High-throughput peptide-centric local stability assay extends protein–ligand identification to membrane proteins, tissues and bacteria” (Nature Structural & Molecular Biology, 2025) come the findings set out here.

Amino acid sequences for entries named in this document (tags omitted). A change or cut given only in a name is not applied to a line headed by its entry.
UniProt P77609: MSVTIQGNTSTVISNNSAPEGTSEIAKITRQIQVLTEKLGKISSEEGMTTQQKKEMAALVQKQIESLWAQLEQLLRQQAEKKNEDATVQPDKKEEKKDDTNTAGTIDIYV
UniProt P75960: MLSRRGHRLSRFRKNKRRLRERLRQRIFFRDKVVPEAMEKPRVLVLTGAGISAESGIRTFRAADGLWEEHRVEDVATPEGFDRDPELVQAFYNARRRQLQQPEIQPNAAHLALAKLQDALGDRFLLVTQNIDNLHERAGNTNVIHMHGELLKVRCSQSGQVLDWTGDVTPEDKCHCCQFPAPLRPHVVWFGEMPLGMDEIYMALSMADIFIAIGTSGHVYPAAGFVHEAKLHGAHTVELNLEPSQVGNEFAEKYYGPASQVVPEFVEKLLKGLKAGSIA
UniProt P75989: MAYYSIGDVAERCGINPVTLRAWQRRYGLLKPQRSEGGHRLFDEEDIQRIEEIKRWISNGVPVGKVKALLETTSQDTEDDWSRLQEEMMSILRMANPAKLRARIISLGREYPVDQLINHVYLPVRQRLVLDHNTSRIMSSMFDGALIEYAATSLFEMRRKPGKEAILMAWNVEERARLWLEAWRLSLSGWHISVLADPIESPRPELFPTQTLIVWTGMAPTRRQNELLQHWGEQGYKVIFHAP
UniProt P77634: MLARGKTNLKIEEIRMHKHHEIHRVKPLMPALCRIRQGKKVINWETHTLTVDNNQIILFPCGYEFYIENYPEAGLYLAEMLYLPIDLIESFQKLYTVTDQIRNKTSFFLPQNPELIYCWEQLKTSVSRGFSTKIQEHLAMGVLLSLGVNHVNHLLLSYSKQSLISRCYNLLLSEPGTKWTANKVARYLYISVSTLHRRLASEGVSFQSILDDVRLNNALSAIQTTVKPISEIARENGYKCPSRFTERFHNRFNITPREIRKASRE
UniProt P75975: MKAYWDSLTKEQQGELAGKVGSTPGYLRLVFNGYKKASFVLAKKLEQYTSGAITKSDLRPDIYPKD
UniProt P75913: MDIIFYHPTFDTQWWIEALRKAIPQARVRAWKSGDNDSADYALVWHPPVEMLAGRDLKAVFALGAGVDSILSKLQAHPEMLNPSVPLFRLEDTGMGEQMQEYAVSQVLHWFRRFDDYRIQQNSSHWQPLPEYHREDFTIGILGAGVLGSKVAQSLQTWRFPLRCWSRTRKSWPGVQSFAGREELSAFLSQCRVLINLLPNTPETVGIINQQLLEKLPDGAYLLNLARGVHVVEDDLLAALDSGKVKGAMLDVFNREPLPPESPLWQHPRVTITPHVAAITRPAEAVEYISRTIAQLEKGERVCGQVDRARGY
UniProt P77610: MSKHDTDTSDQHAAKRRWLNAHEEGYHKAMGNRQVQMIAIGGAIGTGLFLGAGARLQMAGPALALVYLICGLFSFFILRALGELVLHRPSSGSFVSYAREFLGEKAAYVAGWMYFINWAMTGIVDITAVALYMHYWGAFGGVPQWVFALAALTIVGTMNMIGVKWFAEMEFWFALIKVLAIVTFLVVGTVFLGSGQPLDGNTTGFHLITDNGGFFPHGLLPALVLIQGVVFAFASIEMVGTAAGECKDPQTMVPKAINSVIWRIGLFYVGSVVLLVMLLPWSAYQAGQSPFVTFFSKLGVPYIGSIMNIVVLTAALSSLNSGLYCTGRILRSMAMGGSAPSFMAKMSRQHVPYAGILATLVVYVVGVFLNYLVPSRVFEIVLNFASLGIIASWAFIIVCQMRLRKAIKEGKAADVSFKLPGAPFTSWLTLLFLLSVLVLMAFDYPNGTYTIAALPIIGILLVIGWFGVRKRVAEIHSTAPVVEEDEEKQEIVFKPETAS
UniProt P76254: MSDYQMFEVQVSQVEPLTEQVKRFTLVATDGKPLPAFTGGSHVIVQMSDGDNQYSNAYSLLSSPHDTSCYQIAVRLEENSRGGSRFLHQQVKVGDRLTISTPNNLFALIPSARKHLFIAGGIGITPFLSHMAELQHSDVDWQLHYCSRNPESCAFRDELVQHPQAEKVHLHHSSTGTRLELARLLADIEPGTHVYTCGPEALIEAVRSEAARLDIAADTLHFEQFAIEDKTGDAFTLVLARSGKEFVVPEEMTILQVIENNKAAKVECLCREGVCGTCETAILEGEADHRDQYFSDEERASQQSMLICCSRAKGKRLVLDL
UniProt P77260: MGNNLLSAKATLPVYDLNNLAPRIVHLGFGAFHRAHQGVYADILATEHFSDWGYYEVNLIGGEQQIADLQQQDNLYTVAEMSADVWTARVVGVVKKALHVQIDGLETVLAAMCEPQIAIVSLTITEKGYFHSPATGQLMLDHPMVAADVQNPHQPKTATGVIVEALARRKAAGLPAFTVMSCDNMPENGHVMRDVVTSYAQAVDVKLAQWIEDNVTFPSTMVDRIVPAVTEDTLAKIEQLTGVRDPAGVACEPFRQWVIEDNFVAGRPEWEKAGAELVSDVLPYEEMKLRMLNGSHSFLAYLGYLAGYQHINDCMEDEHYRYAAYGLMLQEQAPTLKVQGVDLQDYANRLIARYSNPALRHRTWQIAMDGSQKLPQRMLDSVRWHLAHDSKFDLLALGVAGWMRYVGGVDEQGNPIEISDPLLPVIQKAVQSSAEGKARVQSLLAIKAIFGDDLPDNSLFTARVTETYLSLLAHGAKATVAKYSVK
UniProt P76192: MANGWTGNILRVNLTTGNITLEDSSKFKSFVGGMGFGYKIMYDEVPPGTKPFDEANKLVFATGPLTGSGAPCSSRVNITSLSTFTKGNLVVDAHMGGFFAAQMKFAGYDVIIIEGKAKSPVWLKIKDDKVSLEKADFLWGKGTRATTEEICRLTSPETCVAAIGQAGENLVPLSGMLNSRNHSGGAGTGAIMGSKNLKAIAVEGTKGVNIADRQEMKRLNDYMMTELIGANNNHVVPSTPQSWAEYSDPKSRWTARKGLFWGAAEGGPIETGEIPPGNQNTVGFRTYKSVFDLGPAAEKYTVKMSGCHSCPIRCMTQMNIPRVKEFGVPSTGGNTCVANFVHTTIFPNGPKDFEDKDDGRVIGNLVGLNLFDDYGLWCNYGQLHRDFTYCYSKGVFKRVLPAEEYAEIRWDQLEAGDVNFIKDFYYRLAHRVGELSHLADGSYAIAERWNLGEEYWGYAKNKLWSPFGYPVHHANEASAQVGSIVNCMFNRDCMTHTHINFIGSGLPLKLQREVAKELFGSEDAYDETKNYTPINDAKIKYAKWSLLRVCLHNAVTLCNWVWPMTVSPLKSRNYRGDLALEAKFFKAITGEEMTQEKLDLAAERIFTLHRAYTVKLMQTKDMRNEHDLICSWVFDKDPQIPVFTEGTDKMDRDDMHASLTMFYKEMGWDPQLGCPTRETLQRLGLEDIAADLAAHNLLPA
UniProt P76340: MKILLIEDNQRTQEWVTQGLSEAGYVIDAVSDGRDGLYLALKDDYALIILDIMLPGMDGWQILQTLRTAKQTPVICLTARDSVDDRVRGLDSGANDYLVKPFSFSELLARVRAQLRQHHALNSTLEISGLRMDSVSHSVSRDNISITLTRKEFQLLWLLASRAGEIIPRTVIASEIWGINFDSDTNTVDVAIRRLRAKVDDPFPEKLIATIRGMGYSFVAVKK
UniProt P77544: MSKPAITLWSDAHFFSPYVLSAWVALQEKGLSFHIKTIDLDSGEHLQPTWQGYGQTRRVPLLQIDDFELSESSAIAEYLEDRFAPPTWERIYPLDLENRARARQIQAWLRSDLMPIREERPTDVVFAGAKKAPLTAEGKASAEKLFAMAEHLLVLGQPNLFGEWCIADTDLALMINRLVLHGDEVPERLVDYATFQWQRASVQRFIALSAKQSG
UniProt P76372: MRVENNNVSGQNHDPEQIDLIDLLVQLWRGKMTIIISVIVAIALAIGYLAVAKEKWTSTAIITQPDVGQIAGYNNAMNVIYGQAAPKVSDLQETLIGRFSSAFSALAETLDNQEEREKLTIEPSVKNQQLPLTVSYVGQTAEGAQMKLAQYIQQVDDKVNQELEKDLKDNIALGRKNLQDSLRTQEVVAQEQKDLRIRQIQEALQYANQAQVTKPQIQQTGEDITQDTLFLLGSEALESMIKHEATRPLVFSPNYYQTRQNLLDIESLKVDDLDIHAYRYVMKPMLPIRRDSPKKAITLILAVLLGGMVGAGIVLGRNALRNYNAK
UniProt P76104: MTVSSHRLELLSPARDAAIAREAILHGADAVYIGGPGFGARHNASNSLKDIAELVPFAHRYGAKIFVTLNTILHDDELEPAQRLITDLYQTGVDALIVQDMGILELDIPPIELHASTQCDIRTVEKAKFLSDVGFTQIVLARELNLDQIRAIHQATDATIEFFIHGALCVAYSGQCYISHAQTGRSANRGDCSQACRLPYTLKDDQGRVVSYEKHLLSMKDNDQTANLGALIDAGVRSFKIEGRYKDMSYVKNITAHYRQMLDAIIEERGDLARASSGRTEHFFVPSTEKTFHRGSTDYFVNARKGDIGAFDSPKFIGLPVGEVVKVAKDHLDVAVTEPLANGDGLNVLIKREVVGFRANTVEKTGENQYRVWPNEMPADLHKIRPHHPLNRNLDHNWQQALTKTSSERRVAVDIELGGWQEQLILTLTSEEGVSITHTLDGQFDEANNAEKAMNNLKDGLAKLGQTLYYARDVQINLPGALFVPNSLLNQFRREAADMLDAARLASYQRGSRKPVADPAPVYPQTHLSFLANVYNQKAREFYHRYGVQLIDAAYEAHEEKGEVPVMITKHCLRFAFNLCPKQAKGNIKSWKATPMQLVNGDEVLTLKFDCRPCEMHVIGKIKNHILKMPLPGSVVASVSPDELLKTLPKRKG
UniProt P76187: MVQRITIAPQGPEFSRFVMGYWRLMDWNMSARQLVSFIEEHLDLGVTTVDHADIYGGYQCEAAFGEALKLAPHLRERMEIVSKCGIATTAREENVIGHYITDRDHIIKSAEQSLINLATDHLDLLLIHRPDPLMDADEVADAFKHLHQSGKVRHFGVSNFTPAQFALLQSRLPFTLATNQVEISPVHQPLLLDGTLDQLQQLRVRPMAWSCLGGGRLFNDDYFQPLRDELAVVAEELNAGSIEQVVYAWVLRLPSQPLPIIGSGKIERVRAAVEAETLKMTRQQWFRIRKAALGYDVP
UniProt P76016: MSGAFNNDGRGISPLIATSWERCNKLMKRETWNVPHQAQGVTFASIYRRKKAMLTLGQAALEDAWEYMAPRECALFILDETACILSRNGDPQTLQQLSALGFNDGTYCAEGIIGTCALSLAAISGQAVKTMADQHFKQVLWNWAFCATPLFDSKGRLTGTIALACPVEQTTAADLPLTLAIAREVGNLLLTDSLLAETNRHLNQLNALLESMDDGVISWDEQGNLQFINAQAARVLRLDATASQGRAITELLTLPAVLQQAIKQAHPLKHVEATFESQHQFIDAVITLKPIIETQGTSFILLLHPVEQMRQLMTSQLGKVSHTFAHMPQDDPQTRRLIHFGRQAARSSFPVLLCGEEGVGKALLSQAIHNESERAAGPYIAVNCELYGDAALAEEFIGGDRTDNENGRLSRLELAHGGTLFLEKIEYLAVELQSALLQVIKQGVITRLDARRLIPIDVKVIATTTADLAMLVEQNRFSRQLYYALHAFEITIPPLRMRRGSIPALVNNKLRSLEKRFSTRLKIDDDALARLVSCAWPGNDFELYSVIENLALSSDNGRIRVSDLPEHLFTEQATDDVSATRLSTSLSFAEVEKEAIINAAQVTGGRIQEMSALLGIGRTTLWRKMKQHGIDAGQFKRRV
UniProt P76113: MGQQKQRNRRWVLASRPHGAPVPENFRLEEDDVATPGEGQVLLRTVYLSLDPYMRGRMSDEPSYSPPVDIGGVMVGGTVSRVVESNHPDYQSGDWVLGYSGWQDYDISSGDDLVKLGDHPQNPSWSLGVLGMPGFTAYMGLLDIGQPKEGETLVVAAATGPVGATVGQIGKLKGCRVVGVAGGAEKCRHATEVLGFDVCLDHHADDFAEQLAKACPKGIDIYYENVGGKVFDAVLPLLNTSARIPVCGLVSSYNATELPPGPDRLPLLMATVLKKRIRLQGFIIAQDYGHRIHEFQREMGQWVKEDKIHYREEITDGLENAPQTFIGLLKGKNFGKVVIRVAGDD
UniProt P77319: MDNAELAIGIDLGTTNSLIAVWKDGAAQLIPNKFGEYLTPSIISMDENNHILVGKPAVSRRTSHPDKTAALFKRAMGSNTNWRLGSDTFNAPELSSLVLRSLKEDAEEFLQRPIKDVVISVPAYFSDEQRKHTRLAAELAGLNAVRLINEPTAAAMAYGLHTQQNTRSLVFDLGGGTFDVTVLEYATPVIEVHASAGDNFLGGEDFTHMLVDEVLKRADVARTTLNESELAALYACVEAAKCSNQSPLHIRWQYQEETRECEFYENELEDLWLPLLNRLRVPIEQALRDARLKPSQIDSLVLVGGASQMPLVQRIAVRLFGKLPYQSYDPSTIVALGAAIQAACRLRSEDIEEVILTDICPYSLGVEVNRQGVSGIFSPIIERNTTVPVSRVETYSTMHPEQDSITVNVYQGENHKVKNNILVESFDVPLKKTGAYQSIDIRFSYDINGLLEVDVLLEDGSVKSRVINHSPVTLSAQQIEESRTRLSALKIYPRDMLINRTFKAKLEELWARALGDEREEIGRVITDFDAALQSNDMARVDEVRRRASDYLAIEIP

Some of the results follow. Most values lie at the level of the controls, where differences are scatter.

Compound in this assay: CC1(C)S[C@@H]2[C@H](NC(=O)[C@H](N)c3ccccc3)C(=O)N2[C@H]1C(=O)O [ampicillin]
Description: log2 fold change of tryptic peptide abundance, ligand vs vehicle (limited proteolysis) (log2 ratio); higher = more trypsin-susceptible (destabilized). The following applies: ligand concentration: 10 uM; sample: E. coli crude lysate.
On to “UniProt P76206 (peptide sequence: QFLNGPVHSFR, peptide start residue: 141)”, for which the log2 fold change is 0.586.

Regarding “UniProt P77609 (peptide sequence: KNEDATVQPDKK, peptide start residue: 82)”, the log2 fold change is 0.403.

Take “UniProt P77608 (peptide sequence: NNEEVSSGR, peptide start residue: 188)”: the log2 fold change is 0.158.

For “UniProt P75960 (peptide sequence: AADGLWEEHR, peptide start residue: 62)”, the log2 fold change was 0.276.

On to “UniProt P76422 (peptide sequence: SLLAMGCGAVLMK, peptide start residue: 164)”, for which the log2 fold change amounted to 0.169.

Consider “UniProt P75989 (peptide sequence: WISNGVPVGK, peptide start residue: 56)”, for which the log2 fold change is -0.122.

For the target “UniProt P77634 (peptide sequence: ENGYKCPSR, peptide start residue: 235)”, the log2 fold change is 0.327.

For the target “UniProt P76539 (peptide sequence: LGYEHADVLSLGK, peptide start residue: 121)”, the log2 fold change was determined as 0.116.

Consider “UniProt P75975 (peptide sequence: VGSTPGYLR, peptide start residue: 20)”, for which the log2 fold change is 0.181.

With “UniProt P75913 (peptide sequence: TIAQLEKGER, peptide start residue: 292)”, the log2 fold change was found to be 0.154.

With “UniProt P77610 (peptide sequence: WLNAHEEGYHK, peptide start residue: 18)”, the log2 fold change is -0.0129.

Consider “UniProt P77402 (peptide sequence: VGYENVDHFAK, peptide start residue: 255)”, for which the log2 fold change was -0.488.

As for “UniProt P76254 (peptide sequence: FLHQQVK, peptide start residue: 86)”, the log2 fold change stood at 0.174.

In the case of “UniProt P77260 (peptide sequence: TATGVIVEALAR, peptide start residue: 157)”, the log2 fold change stood at 0.183.

Turning to “UniProt P77499 (peptide sequence: IALLKMPEDLLTR, peptide start residue: 128)”, the log2 fold change is -0.611.

In the case of “UniProt P76192 (peptide sequence: SVFDLGPAAEKYTVK, peptide start residue: 289)”, the log2 fold change was -0.344.

Regarding “UniProt P77529 (peptide sequence: QTDKAILDSEDDAELAHH, peptide start residue: 446)”, the log2 fold change is -0.341.

“UniProt P77285 (peptide sequence: TTIAEQASLQQK, peptide start residue: 32)”: the log2 fold change worked out at 0.454.

As to “UniProt P77467 (peptide sequence: EGVSAFLAK, peptide start residue: 246)”, the log2 fold change is -0.413.

Consider “UniProt P77585 (peptide sequence: NFDYGAANHR, peptide start residue: 228)”, for which the log2 fold change is -0.272.

With “UniProt P76273 (peptide sequence: VGNFPFSPVKDR, peptide start residue: 324)”, the log2 fold change was -0.0771.

With “UniProt P76340 (peptide sequence: QHHALNSTLEISGLR, peptide start residue: 117)”, the log2 fold change turned out to be 0.169.

As for “UniProt P77337 (peptide sequence: QHPAIRPLISGGK, peptide start residue: 260)”, the log2 fold change was -0.381.

Take “UniProt P77161 (peptide sequence: QALMGGFASSR, peptide start residue: 202)”: the log2 fold change is -0.444.

Regarding “UniProt P77544 (peptide sequence: KAPLTAEGK, peptide start residue: 131)”, the log2 fold change was determined as 0.186.

Take “UniProt P76372 (peptide sequence: DNIALGRK, peptide start residue: 169)”: the log2 fold change is 0.501.

As for “UniProt P76193 (peptide sequence: LVDKALYR, peptide start residue: 287)”, the log2 fold change is -0.199.

Regarding “UniProt P76104 (peptide sequence: GSTDYFVNAR, peptide start residue: 295)”, the log2 fold change is -0.136.

Regarding “UniProt P76187 (peptide sequence: LMDWNMSAR, peptide start residue: 24)”, the log2 fold change was -0.268.

Take “UniProt P77252 (peptide sequence: LGVVDVGASLQGR, peptide start residue: 119)”: the log2 fold change amounted to 0.159.

Regarding “UniProt P76016 (peptide sequence: VSHTFAHMPQDDPQTR, peptide start residue: 320)”, the log2 fold change was -0.35.

For “UniProt P77272 (peptide sequence: LRLGVHDSSLVDPNIK, peptide start residue: 33)”, the log2 fold change was -0.762.

Take “UniProt P76113 (peptide sequence: LQGFIIAQDYGHR, peptide start residue: 279)”: the log2 fold change was -0.491.

Consider “UniProt P77329 (peptide sequence: GEAILAALK, peptide start residue: 10)”, for which the log2 fold change is -0.62.

Regarding “UniProt P77212 (peptide sequence: IVRDELLGEGKR, peptide start residue: 309)”, the log2 fold change was -0.704.

In the case of “UniProt P77319 (peptide sequence: LAAELAGLNAVR, peptide start residue: 135)”, the log2 fold change turned out to be 0.457.
